Source: PubChem BioAssay AID602196 (INSERM, 2012)
Shown is an unselected part of about 23,000 deposited reagents. Of all reagents, 455 (2%) got an active call. 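Active includes both protection and sensitisation; some change values fall well beyond the stated -50 to +50 range.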 Unmarked entries are inactive. Further read-outs or replicates are left out here. No sequences are given here. The record does not give: the amount of reagent.

Purpose: 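Genes whose knock-down alters cisplatin killing of lung cancer cells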
Cells: human A549 lung cancer cells
Reagent: siRNA pair against human genes
Time to read-out: 48 h transfection before cisplatin; time from cisplatin to read-out not stated
Challenge: cisplatin at a dose killing half of control-siRNA cells; exact dose and duration not given
Read-out: 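Shift in cisplatin death relative to control siRNA, from -50 (all cells die) to +50 (no cells die); siRNAs harmful on their own scored 0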
Reading the numbers: two-siRNA summed score (-2 to +2): higher = both siRNAs protect from cisplatin killing; -2 means both sensitise
Hit rule: 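siRNAs harmful alone (LDH or WST-1) get 0; others get +1 for less and -1 for more cisplatin killing; genes are active when the two siRNAs give the same sign, summing to ±2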
Meaning of the calls: active = both siRNAs shift cisplatin killing the same way; inactive = no consistent shift, or siRNA harmful alone

gene knocked down	two-siRNA summed score (-2 to +2)
TACC1	0
FLJ37201	0
LOC342900	1
SLC1A3	0
H2BC10	0
AGK	0
TMEM216	0
CASTOR3P	-1
PIP5K1B	-2 (active)
LOC222699	0
RPP38-DT	0
ARG2	0
FAR2P1	0
WNK4	-1
SSR4	-1
MACROD2	0
ALDH1L1	0
MYLK3	0
TEX101	-1
MDC1	1
HACD1	0
PGA5	0
TSSK1B	1
LOC148418	0
HDGFL3	0
LTK	0
MUC20	0
TAPT1-AS1	1
LOC440742	1
KLF3-AS1	0
LOC401204	0
TCHP	0
AADAT	0
CADPS	0
HKDC1	-1
GDA	1
UBL3	0
C1QTNF1	0
FRMPD2	0
MRPS12	0
DIPK1B	0
MYT1	0
PSME1	0
SAMD4B	0
LOC402671	0
LOC389085	-1
KIR2DL5A	0
B9D2	0
BIRC2	0
SYPL1	-1
B3GALT2	0
HERC5	0
MGST3	0
NMRK1	0
FBXO45	0
MYH2	0
ABHD18	0
OR5AN1	0
SLC15A4	0
LOC388755	0
LOC389242	0
ZNF18	0
OR4N5	0
NKAPP1	0
LOC439946	0
CPT1B	-1
LOC440750	0
LOC391298	1
LOC389281	0
LOC439966	0
LOC440930	0
LOC440798	0
RNASE6	0
